Measured values as given in paper PMC12324573.

Chains of the proteins cited; added tags and fusions are not shown. Lines headed by an entry give the natural chain unless they say otherwise; changes in a name come on top.
UniProt Q39057: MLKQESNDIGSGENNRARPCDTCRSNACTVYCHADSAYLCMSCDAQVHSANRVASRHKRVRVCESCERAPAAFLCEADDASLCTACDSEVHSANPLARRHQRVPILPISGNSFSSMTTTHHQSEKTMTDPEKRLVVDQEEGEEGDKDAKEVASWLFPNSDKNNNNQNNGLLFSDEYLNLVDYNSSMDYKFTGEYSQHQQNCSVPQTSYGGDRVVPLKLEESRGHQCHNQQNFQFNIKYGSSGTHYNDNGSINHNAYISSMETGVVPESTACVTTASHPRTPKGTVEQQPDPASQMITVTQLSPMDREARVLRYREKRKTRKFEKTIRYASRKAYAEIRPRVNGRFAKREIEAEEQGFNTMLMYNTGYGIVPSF
UniProt Q6NLH4: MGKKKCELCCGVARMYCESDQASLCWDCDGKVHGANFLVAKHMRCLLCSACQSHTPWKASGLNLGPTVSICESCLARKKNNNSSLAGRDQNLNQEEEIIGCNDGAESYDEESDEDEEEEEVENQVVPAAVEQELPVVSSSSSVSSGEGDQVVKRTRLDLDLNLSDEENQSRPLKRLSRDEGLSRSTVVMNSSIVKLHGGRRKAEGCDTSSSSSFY

Target: CO-cLUC expressed from CO:CO-cLUC in Arabidopsis (Arabidopsis) (UniProt Q39057)
Experiment: split reporter; in vivo split-LUC in stable transgenic Arabidopsis, own promoters; two-week-old plants sprayed with 2.5 mM D-luciferin, photon counting and imaging during transfer from 22/22°C to 12/22°C long days

**Q.** Which binding does the source give for “BBX29-nLUC expressed from BBX29:BBX29-nLUC in Arabidopsis (from UniProt Q6NLH4)” here?
**A.** binds

These are yes or no findings as the source states them, for the method shown. In cells and extracts the contact can be indirect. Binding calls can cover weak binding; strength is not graded here.
